Results on one substance are retold here after publication PMC9197637.

Chains of the proteins cited; added tags and fusions are not shown.
UniProt O75679: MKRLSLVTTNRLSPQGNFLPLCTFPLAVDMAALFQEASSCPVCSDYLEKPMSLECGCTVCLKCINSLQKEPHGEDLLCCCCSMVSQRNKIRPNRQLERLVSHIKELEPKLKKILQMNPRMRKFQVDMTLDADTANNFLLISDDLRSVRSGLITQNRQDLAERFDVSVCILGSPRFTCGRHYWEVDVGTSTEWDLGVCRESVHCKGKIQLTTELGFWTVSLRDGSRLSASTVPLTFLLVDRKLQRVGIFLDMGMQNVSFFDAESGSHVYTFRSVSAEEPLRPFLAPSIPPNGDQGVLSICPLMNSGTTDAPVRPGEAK
UniProt Q92793: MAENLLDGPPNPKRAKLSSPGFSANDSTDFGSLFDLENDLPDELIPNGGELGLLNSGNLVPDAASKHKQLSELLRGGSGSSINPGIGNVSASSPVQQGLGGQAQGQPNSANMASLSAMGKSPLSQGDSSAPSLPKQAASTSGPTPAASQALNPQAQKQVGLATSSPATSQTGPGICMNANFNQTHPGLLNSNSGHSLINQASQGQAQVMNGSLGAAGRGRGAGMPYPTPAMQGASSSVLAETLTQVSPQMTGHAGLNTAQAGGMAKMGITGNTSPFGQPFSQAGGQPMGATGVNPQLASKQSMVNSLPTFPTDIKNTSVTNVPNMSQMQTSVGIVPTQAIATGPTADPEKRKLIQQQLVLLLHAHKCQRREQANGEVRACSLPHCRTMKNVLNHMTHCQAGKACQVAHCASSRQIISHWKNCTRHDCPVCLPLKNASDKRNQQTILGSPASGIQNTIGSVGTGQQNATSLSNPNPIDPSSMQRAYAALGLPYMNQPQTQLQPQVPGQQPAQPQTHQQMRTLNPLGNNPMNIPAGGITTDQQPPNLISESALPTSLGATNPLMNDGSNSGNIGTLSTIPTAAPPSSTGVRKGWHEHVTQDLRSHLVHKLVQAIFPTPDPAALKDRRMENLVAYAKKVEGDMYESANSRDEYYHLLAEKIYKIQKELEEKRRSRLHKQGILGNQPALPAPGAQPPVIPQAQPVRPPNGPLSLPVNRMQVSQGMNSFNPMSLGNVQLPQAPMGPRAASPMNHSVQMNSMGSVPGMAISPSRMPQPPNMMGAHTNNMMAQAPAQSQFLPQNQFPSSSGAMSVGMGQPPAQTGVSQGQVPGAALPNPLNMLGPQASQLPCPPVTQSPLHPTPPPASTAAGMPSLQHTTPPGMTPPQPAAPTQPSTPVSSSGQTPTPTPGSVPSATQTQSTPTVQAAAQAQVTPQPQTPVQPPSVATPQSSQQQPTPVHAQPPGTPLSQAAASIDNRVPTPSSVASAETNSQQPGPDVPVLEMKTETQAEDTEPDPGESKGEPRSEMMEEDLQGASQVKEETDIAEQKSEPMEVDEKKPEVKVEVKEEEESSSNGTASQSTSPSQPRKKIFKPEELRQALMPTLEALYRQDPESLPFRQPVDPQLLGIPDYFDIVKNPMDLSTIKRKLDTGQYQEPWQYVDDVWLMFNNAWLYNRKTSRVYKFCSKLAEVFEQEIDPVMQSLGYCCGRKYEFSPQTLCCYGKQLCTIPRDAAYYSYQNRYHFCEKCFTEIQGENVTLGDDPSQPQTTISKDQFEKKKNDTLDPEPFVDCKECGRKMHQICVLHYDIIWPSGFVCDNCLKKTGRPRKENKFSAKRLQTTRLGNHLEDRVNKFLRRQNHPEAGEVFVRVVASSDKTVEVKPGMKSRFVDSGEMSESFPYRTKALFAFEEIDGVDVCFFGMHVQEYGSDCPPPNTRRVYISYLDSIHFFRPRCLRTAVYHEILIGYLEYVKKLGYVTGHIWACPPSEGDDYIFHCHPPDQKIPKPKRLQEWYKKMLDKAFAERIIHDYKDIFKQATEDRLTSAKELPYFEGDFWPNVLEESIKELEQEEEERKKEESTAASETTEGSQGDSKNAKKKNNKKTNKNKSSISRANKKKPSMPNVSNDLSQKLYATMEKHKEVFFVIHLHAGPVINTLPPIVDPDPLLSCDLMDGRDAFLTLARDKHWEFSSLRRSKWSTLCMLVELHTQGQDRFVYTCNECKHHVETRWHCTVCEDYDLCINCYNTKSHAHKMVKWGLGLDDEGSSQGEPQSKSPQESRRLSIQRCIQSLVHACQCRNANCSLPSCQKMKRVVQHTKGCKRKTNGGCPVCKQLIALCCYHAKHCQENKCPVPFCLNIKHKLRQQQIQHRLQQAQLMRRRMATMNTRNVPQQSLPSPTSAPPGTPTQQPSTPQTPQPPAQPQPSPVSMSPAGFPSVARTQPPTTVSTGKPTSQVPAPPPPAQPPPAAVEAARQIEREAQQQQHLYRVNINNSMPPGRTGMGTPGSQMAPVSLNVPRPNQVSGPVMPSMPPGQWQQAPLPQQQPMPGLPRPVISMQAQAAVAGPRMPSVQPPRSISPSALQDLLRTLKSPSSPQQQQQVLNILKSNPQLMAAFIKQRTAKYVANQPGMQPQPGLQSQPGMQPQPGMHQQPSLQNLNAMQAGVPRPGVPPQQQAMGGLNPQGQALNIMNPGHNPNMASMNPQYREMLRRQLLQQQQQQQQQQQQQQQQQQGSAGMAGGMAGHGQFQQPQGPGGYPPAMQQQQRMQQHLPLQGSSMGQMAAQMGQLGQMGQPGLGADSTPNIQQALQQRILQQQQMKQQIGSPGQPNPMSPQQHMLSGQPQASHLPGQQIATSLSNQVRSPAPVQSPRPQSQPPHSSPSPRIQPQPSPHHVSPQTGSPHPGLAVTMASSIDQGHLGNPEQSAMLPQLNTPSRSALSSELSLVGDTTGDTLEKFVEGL

No constants are given. Whether binding was seen depends on the method and setting. Binding seen in cells or lysates may run through a third protein. Some binding calls cover weakened binding; strength is not graded here.

The experiment addresses RFPL-3 (human (endogenous in breast cancer cells)) (UniProt O75679). The experiment can be described thus: co-IP; nuclear extracts from breast cancer cells immunoprecipitated with anti-RFPL3, complexes immunoblotted with anti-CBP.

As to CBP (from UniProt Q92793 1-2442), the binding result is reported as “binds”.
